The values that follow come from patent publication US20220332804A1.

Chains of the proteins cited; added tags and fusions are not shown. Lines headed by an entry give the natural chain unless they say otherwise; changes in a name come on top. A line that says so, or that is headed by a name, gives the form on record, which may keep a tag or linker.
cynomolgus monkey C2 (G8F3W0, form named): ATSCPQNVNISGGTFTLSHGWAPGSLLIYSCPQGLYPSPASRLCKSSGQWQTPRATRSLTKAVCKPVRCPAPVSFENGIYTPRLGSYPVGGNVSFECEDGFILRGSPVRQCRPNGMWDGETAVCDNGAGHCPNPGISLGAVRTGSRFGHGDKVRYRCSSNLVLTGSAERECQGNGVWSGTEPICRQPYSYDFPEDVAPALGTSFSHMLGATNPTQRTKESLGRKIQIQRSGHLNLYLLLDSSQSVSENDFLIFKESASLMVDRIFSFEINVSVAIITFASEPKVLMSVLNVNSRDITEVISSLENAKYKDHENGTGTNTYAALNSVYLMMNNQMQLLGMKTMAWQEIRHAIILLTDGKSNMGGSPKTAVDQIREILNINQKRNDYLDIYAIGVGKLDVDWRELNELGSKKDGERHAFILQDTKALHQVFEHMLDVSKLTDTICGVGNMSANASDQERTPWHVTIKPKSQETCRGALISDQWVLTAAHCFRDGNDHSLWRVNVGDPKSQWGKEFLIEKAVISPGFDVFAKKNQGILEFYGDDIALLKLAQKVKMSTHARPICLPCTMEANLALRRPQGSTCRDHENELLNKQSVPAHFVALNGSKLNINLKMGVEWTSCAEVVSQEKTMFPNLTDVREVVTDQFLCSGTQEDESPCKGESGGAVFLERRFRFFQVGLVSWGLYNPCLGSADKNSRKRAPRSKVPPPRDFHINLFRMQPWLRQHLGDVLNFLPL

Residue numbers refer to the chain shown, from its start. Results are given in words; binding and its absence hold for the method and conditions named. Some entries that bind do so weakly or less than the wild type.

The target in this experiment is cynomolgus monkey C2 (cynomolgus monkey) (UniProt G8F3W0). The experiment can be described thus: SPR, neutral pH. For orientation: In SPR one partner is held on a chip, and binding of the other changes the refractive index at the surface.

B1: RF16-203 (antibody, V domains shown)
VH: EVQLLESGGGLVQPGGSLRLSCAASGFTFSRYYMMWVRQAPGKGLEWVSSIGSSGGTTNYADSVKGRFTISRDNSKNTLYLQMNSLRAEDTATYYCAKGGMVLGVVNIWGQGTLVTVSS
VL: QSALTQPPSVSVSPGQTATITCSGDKLGEKYVSWYQQKPGQSPVVVIFQDIKRPSGIPERFSGSNSGNTATLTISGTQAMDEADYYCQTWGTGGIQVFGGGTKLTVLR
Take B1: the binding entry is reported as “binds”.

B2: RF16-203G (antibody, V domains shown)
VH: B1 VH with T93V
VL: B1 VL with Q1S, S2Y, A3E, T19S, V45L, F48Y, R108G
As for B2, the binding entry is recorded as “binds”.

B3: RF16-214 (antibody, V domains shown)
VH: EVQLLESGGGLVQPGGSLRLSCAASGFTFSWYQMMWVRQAPGKGLEWVSRIYPSGGGTAYADSVKGRFTISRDNSKNTLYLQMNSLRAEDTAVYYCARDAGYGDNWGQGTLVTVSS
VL: QSALTQPPSVSVSPGQTASITCSGDKLGEKYASWYQQKAGQSPVMVIYQDRKRPSGIPERFSGSNSGNTATLTISGTQAMDEADYYCQAWDTRAVVFGGGTKLTVLG
As for B3, the binding result is “binds”.

B4: RF16-214G (antibody, V domains shown)
VH: B3 VH
VL: B3 VL with Q1S, S2Y, A3E, A39P, M45L
For the molecule B4, the binding result was “binds”.

B5: RF16-242 (antibody, V domains shown)
VH: EVQLLQSGAEVKKPGESLKISCKGSGYSFTSYWIGWVRQMPGKGLEWMGIIYPGDSDTRYSPSFQGQVTISADKSISTAYLQWSSLKASDTAMYYCARRGHYGDYFDYWGQGTLVTVSS
VL: SYELTQPPSVSVSPGQTARITCSGDALPKKYAYWYHQKSGQAPVLVIYEDRRRPSEIPERFSGSSSGTMATLTITGAQVEDEGVYFCYSRDRAGNQRVFGGGTQLTVLG
B5: the binding result was “binds”.

B6: RF16-242G (antibody, V domains shown)
VH: B5 VH with L5V
VL: B5 VL with H36Q, E56G, T75S, G83A, V84D, F86Y
As to B6, the binding result is “binds”.

B7: RF16-191 (antibody, V domains shown)
VH: EVQLLESGGGLVQPGGSLRLSCAASGFTFSKYWMGWVRQATGKGLEWVSSIYSSGGWTYYADSVKGRFTISRDNSKNTLYLQMNSLRAEDTAVYYCARRPRSFSGSYYRAFDIWGQGTMVTVSS
VL: DIQMTQSPSSLSASVGDRVTITCRASQSITDYLNWYQQRPGKAPKLLIYAASSLQSGVPSRFSGSGSGTDFTLTISGLQPEDFATYYCQQSYSSSITFGQGTRLDLKR
As for B7, the binding result is recorded as “binds”.

B8: RF16-191G (antibody, V domains shown)
VH: B7 VH with T41P
VL: B7 VL with R39K, G77S
B8: the binding entry is listed as “binds”.
